Experimental data: paper PMC12548414
In all, about 1,600 compounds went through this assay and about 20 (1%) showed an effect of 50% or more. This is one part of the list.

The compounds below were run on T1, E. coli pLC1021 (luc-trpAt trans-translation reporter). Conditions: reporter signal, KKL-35 = 100%; rise means trans-translation inhibition; 2 h, 20 µM.
T1 construct: pLC1021 luc-trpAt reporter strain
Set-up: species or system Escherichia coli pLC1021; luc-trpAt non-stop luciferase reporter; luminescence rises when trans-translation is inhibited; normalized to KKL-35 and DMSO
In short: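 Luminescence (560 nm, 10 min after Bright-Glo) reports luciferase that escapes trans-translation tagging, measured after 2 h room-temperature treatment with 20 µM compound. Each plate was scaled between DMSO (negative) and 20 µM KKL-35 (positive) controls. Compounds scoring one standard deviation above the median counted as positive; at least two biological repeats.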
In the case of COc1ccc2cc(C(=O)C3CCCN(Cc4cnc(SC)nc4)C3)ccc2c1 (stereo not shown) [KKL-0663], the “% activation” value is reported as 2%. For Cc1cccc(OCc2nnc(SCC(=O)NCCc3ccccc3)o2)c1 [KKL-0293], the “% activation” value was 0%. For CC(C)COC(=O)c1ccc2c(c1O)C(=O)c1ccccc1C2=O [KKL-1667], the “% activation” value was 0%. With Cc1cc(CN2CCC(O)(c3ccccc3)C2)ccc1N1CCCC1 (stereo not shown) [KKL-0330] the “% activation” value was 0%. For O=C(Nc1ccccc1)C1COc2ccccc2O1 (stereo not shown) [KKL-0471], the “% activation” value was 6%. With O=C(OCc1nnc(-c2ccccc2)o1)c1cc(-c2cccs2)nc2ccccc12 [KKL-1045] the “% activation” value was 9%. For O=C(NCC1COc2ccccc2O1)c1ccc(NC(=O)C2COc3ccccc3O2)cc1 (stereo not shown) [KKL-1431], the “% activation” value was 0%. For CCCCNC(=O)Nc1nnc(-c2ccc(Cl)cc2)o1 [KKL-0804], the “% activation” value was 1%. In the case of CN(C)c1ccc(NC(=O)c2ccncc2)cc1 [KKL-1365], the “% activation” value is reported as 0%. CCOC(=O)CSc1nc(N)c(C#N)c(CC(C)C)c1C#N [KKL-1629] was tested, and the “% activation” value was 0%. CCCOc1ccc(C(=O)NC(=S)Nc2ccc(C(=O)O)cc2)cc1 [KKL-1324] was tested, and the “% activation” value was 0%. CCN(CC)C(=S)NC(=O)c1ccc(F)cc1 [KKL-1252] was tested, and the “% activation” value was 9%. For Fc1ccccc1CN(CCCn1ccnc1)CC1=Cc2ccccc2OC1 [KKL-0518], the “% activation” value was 4%. For Fc1ccc2nc(Nc3nc(-c4ccccn4)cs3)sc2c1 [KKL-1679], the “% activation” value was 2%. In the case of Fc1ccccc1-c1noc(N2CCN(Cc3ccc4c(c3)OCO4)CC2)n1 [KKL-1687], the “% activation” value is reported as 0%. For CC(C(=O)Oc1cccc2cccnc12)N1C(=O)C2C3C=CC(C4CC34)C2C1=O (stereo not shown) [KKL-1477], the “% activation” value was 5%. In the case of CCCCCCCn1c(=O)c(C(=O)Nc2cnccn2)c(O)c2ccccc21 [KKL-1014], the “% activation” value is reported as 0%. With CC1CC1C(=O)N1CCC(c2nc(Nc3cccc(F)c3)cc(-c3cccnc3)n2)CC1 (stereo not shown) [KKL-0702] the “% activation” value was 6%. c1ccc(-c2nc(NCC3CCCO3)c3ccccc3n2)nc1 (stereo not shown) [KKL-0898] was tested, and the “% activation” value was 0%. In the case of CSc1nccc(N2CCCC(CCC(=O)NCc3ccc(C)o3)C2)n1 (stereo not shown) [KKL-0630], the “% activation” value is reported as 0%. With CCC(=O)Oc1ccc(C(=O)Nc2cc3oc4ccccc4c3cc2OC)cc1 [KKL-1423] the “% activation” value was 0%. For CCOC(=O)c1c(N=C(S)NC2CCN(Cc3ccccc3)CC2)sc(C)c1-c1ccccc1 [KKL-1549], the “% activation” value was 0%. For O=C(Nc1ccc2c(c1)CN(C(=O)/C=C/c1cccs1)CC2)c1ccncc1 [KKL-0616], the “% activation” value was 0%. CC(C)(C)c1ccc(C(=O)Nc2ccc(S(=O)(=O)Nc3nccs3)cc2)cc1Br [KKL-1241] was tested, and the “% activation” value was 2%. CCN(c1ccccc1)c1ccc([N+](=O)[O-])c2nonc12 [KKL-0412] was tested, and the “% activation” value was 0%. O=C(COc1ccc(Cl)cc1)Nc1ccc(N2CCN(C(=O)c3ccco3)CC2)c(Cl)c1 [KKL-0863] was tested, and the “% activation” value was 0%. With COc1ccc2[nH]cc(CCN=C(S)Nc3ccc(Nc4ccccc4)cc3)c2c1 [KKL-0603] the “% activation” value was 2%. For CCc1c(C)nc2cc(-c3cccs3)nn2c1NCc1ccccc1OC [KKL-0531], the “% activation” value was 0%. COc1ccc(C2c3[nH]c4ccccc4c3CCN2Cc2cc3ccccc3nc2O)cc1C (stereo not shown) [KKL-0644] was tested, and the “% activation” value was 0%. CCOC(=O)c1cnc(-n2nc(C)cc2C)nc1Nc1ccc(OC)cc1 [KKL-0879] was tested, and the “% activation” value was 0%. With O=C(CSc1nnc(SCc2cccc3ccccc23)s1)Nc1ccccc1F [KKL-1454] the “% activation” value was 7%. With CCOC(=O)c1c(-c2ccc(C)o2)csc1NC(=S)NC(=O)N(C)C [KKL-0563] the “% activation” value was 0%. With O=[N+]([O-])c1ccc(-c2nc(C(Cl)Cl)c3ccccc3n2)cc1 [KKL-1012] the “% activation” value was 5%. For CCc1ccc(Oc2nc([N+](=O)[O-])nn2C)cc1 [KKL-0611], the “% activation” value was 0%. For COc1cccc(-c2ccccc2NC(=O)C2CCN(Cc3ccc(F)c(OC)c3)CC2)c1 [KKL-1172], the “% activation” value was 0%. With COC(C)(C)C#CC(=O)c1cccc2ccccc12 [KKL-0420] the “% activation” value was 0%. In the case of COc1ccc(Cc2cnc(NC(=O)c3ccccc3Cn3ccnc3)s2)cc1 [KKL-0463], the “% activation” value is reported as 6%. Cc1ccc(C(C)C)cc1OCCCCn1ccnc1 [KKL-0429] was tested, and the “% activation” value was 8%. COC(=O)CSc1cc(SCC(=O)OC)c(C#N)c(SCC(=O)OC)c1 [KKL-0452] was tested, and the “% activation” value was 0%. In the case of CCC(CC)c1cc([C@H]2CN3CC[C@H]2C[C@@H]3CNCc2ccc(OC)cc2)nc(-c2ccncc2)n1 [KKL-1599], the “% activation” value is reported as 0%. In the case of COc1cccc(C(=O)NC(=S)Nc2ccc(N3CCN(C(=O)c4cccs4)CC3)c(Cl)c2)c1 [KKL-1321], the “% activation” value is reported as 0%. COC(=O)C(CC(C)C)NC(=O)/C=C/c1ccc(Cl)cc1 (stereo not shown) [KKL-0983] was tested, and the “% activation” value was 6%. With CN(Cc1ccnc(N2CCCC2)n1)Cc1cccc2ncccc12 [KKL-0680] the “% activation” value was 0%. With Cc1nn(-c2ccccc2)c2c1C(c1ccc(O)c(O)c1)N1C(=N2)C(Nc2ccccc2)=Nc2ccccc21 (stereo not shown) [KKL-0996] the “% activation” value was 0%. For CCN(Cc1ccccc1)c1ccc(C=NN=C(N)N)cc1 [KKL-0836], the “% activation” value was 18%. With COc1cccc(-c2cc(CC3(O)CCN(Cc4ccc(SC)cc4)CC3)on2)c1 [KKL-1131] the “% activation” value was 4%. O=C(NCCC12CC3CC(CC(C3)C1)C2)c1ccc(Br)cc1 [KKL-0919] was tested, and the “% activation” value was 0%. In the case of Cc1cccc(-n2cc(CNCCc3nc(C)c[nH]3)c(-c3cccc(F)c3)n2)c1 [KKL-0510], the “% activation” value is reported as 9%. CCN(CC)CCn1c(=N)n(CC(O)COc2ccc(Cl)cc2Cl)c2ccccc21 (stereo not shown) [KKL-1256] was tested, and the “% activation” value was 0%. In the case of O=C(Nc1nc(-c2ccccn2)cs1)N1CCC(Cc2ccc(F)cc2)CC1 [KKL-1842], the “% activation” value is reported as 28%. With O=C(NCc1ccco1)N1CCN(Cc2ccc3c(c2)CCO3)CC1 [KKL-1726] the “% activation” value was 0%. For CC1CCN(CCN=C(S)Nc2ccc(F)cc2)CC1 [KKL-0724], the “% activation” value was 0%. In the case of CC1=Nc2c(ccc3cccnc23)C1(C)C [KKL-0451], the “% activation” value is reported as 0%. In the case of Cc1ccc2c(C)c(C(=O)N3CCn4cnnc4C3)oc2c1 [KKL-1206], the “% activation” value is reported as 0%. In the case of N=c1c2c(ncn1Cc1ccco1)Oc1c(ccc3ccccc13)C2c1ccccc1 (stereo not shown) [KKL-1009], the “% activation” value is reported as 0%.
